Results deposited as PubChem BioAssay AID602196 (INSERM, 2012)

Assay: 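Genes whose knock-down alters cisplatin killing of lung cancer cells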
Cell system: human A549 lung cancer cells
Knock-down reagent: siRNA pair against human genes
Duration: 48 h transfection before cisplatin; time from cisplatin to read-out not stated
Conditions: cisplatin at a dose killing half of control-siRNA cells; exact dose and duration not given
Measurement: 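Cisplatin cell death as a shift from the 50% death seen with control siRNA; siRNAs toxic or growth-blocking alone scored 0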
Scale: two-siRNA summed score (-2 to +2): higher = both siRNAs protect from cisplatin killing; -2 means both sensitise; mean protection from cisplatin (shift in death) and protection from cisplatin (shift in death), siRNA C: higher = protection from cisplatin killing
Call rule: 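siRNAs harmful alone (LDH or WST-1) get 0; others get +1 for less and -1 for more cisplatin killing; genes are active when the two siRNAs give the same sign, summing to ±2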
Calls: active = both siRNAs shift cisplatin killing the same way; inactive = no consistent shift, or siRNA harmful alone
In all, the deposit lists about 23,000 reagents; shown is a random part of them. Over the whole deposit, 455 (2%) were called active. 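Active includes both protection and sensitisation; some change values fall well beyond the stated -50 to +50 range.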 Further read-outs or replicates are left out here. Reagent sequences are not shown. Not given: the amount of reagent.

Target gene,two-siRNA summed score (-2 to +2),mean protection from cisplatin (shift in death) (%),"protection from cisplatin (shift in death), siRNA C (%)",Outcome
KCTD2,0,2.1,-10.8,inactive
PUS7,0,12.8,19.5,inactive
C17orf75,1,14.4,-1,inactive
DKFZp686I0554,1,9.1,15.5,inactive
CD248,-1,6.8,35.7,inactive
UCN3,0,3.2,8.4,inactive
C1QTNF4,0,4.2,-0.4,inactive
OR8B12,0,-4.5,-8.5,inactive
LOC284064,0,2,9.6,inactive
FTSJ3,0,8.4,11.5,inactive
LOC441236,0,-2.9,-10.2,inactive
G3BP2,0,5,10.5,inactive
MT1A,0,10.5,16.9,inactive
SHC2,0,0.4,3.4,inactive
PRR15,0,-5.4,-14.3,inactive
PID1,0,2,-6.3,inactive
STK39,2,28.3,34.4,active
LOC402117,0,1.8,16.4,inactive
TMED8,1,7.7,-11.4,inactive
LOC400691,0,10,3.8,inactive
ZNF619,1,5,-5.7,inactive
ELMOD2,0,2,9.8,inactive
PSMD5,0,-7,-3.2,inactive
